Test results from the supplement of paper PMC10849652.
The other results are listed elsewhere or left out.

Chains of the proteins cited; added tags and fusions are not shown. Lines headed by an entry give the natural chain unless they say otherwise; changes in a name come on top.
UniProt Q9BVK2: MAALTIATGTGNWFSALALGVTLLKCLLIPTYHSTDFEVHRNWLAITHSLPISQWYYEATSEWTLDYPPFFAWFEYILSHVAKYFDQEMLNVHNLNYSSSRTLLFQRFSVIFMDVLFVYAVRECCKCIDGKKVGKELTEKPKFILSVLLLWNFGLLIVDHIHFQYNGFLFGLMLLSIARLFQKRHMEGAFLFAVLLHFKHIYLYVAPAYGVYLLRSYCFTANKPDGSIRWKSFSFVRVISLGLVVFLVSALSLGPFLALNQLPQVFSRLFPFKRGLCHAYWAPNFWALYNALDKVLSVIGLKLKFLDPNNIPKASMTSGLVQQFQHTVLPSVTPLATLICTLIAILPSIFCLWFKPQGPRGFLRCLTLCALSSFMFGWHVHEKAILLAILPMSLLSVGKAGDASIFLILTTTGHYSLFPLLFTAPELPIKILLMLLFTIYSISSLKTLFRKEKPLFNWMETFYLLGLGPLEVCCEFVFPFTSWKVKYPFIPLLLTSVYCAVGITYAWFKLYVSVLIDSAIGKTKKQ
UniProt Q9H553: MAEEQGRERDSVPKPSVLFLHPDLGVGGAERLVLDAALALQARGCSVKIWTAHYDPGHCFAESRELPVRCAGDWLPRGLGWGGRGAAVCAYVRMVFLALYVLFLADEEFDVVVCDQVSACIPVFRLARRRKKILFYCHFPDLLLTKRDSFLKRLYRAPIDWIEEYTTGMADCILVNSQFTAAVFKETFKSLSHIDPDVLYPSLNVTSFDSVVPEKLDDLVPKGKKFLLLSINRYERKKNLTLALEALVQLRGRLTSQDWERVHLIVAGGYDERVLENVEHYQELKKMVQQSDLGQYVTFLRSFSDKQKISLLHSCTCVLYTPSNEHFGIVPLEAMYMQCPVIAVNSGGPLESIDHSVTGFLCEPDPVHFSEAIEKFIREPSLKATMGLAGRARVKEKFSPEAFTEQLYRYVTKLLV
UniProt Q9NXR5: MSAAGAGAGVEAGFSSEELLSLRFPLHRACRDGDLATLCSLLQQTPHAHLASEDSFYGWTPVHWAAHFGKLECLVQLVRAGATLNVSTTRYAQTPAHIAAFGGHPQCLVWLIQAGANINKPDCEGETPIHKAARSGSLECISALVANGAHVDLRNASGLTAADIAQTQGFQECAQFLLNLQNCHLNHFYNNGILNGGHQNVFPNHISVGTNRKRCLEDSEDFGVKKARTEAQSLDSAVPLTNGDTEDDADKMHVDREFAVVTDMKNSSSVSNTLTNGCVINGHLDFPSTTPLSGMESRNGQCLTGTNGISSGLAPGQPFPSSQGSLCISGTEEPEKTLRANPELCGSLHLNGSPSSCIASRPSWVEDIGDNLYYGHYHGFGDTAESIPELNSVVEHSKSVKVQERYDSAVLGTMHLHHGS
UniProt Q8NB46: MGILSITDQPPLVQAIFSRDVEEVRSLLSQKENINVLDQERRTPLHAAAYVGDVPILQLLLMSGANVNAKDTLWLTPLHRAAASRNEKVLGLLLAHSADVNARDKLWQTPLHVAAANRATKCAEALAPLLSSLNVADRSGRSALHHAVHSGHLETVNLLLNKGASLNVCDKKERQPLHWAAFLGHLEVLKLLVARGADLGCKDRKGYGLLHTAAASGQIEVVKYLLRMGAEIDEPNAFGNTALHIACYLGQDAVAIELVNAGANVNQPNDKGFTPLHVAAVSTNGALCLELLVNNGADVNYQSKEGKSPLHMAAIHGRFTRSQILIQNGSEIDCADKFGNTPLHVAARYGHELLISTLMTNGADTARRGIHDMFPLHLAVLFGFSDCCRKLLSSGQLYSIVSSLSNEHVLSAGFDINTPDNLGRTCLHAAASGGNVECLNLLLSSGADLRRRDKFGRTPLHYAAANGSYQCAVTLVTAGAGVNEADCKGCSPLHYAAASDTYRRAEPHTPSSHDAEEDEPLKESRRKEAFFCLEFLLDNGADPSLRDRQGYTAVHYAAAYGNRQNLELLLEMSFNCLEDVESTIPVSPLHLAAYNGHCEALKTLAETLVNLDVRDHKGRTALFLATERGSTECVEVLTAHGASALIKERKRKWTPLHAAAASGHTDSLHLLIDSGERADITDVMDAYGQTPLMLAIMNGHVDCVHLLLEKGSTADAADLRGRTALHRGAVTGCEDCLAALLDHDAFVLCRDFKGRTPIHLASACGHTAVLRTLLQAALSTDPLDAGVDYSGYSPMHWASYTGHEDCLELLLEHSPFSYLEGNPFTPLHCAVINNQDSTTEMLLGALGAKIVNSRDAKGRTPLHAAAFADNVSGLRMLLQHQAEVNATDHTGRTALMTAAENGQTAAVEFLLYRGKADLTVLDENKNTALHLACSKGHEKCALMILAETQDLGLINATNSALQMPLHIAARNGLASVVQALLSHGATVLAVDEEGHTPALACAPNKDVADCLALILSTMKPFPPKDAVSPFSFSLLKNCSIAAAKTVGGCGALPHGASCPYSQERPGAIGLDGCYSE
UniProt P31751: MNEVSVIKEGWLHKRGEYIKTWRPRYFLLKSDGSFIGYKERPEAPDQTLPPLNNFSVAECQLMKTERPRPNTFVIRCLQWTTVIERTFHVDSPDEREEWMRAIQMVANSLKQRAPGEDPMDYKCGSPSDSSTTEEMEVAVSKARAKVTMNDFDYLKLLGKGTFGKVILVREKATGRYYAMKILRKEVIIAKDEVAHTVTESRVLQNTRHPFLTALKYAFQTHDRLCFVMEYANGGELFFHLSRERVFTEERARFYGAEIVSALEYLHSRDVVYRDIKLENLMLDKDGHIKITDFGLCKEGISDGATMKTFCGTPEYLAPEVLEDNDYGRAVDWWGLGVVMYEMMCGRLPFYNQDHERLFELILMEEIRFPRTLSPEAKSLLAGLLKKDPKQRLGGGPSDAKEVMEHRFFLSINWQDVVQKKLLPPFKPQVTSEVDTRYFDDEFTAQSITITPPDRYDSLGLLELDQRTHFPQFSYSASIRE
UniProt P58335, whole entry, looked up: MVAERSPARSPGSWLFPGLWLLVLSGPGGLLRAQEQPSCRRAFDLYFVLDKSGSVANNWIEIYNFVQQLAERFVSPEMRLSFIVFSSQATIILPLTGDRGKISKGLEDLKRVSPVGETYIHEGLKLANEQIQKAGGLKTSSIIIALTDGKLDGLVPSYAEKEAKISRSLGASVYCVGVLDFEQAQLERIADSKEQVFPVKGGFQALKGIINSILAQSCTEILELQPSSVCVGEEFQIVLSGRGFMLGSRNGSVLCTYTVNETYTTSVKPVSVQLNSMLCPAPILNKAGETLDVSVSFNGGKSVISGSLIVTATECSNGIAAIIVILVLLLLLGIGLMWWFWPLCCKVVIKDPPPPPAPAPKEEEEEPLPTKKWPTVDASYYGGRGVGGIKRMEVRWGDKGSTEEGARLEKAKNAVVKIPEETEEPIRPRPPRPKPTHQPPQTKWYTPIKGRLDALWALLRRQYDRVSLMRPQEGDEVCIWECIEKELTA
UniProt Q6ZTN6: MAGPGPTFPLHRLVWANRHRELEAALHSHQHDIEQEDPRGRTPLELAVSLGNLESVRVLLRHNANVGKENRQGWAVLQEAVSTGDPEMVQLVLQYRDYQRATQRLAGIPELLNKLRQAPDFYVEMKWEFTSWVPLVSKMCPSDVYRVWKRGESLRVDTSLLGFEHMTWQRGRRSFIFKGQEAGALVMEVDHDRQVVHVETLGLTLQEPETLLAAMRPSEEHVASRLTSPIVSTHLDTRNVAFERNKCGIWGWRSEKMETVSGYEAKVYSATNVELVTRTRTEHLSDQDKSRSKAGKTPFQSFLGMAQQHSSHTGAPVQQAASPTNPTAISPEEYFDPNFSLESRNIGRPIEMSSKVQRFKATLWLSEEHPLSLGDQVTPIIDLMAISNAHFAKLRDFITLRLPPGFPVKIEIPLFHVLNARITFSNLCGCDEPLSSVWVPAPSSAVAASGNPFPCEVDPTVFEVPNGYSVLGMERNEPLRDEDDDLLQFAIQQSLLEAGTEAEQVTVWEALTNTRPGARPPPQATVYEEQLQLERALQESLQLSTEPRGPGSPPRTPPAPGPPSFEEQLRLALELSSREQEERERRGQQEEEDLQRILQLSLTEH
UniProt P50995, whole entry, looked up: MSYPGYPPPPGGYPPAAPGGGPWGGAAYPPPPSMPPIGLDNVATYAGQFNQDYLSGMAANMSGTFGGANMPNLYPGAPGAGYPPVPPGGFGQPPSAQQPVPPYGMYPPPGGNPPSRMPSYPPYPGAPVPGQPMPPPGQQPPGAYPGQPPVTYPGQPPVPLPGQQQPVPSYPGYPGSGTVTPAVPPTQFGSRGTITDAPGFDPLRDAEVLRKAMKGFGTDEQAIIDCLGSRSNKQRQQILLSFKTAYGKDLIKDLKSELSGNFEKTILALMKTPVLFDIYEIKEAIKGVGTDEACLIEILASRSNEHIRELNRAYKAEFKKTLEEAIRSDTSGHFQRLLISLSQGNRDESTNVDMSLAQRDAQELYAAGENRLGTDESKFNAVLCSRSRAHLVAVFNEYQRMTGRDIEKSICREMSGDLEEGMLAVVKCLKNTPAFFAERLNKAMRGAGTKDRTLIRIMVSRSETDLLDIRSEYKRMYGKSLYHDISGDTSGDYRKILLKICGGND
UniProt Q9P2R3: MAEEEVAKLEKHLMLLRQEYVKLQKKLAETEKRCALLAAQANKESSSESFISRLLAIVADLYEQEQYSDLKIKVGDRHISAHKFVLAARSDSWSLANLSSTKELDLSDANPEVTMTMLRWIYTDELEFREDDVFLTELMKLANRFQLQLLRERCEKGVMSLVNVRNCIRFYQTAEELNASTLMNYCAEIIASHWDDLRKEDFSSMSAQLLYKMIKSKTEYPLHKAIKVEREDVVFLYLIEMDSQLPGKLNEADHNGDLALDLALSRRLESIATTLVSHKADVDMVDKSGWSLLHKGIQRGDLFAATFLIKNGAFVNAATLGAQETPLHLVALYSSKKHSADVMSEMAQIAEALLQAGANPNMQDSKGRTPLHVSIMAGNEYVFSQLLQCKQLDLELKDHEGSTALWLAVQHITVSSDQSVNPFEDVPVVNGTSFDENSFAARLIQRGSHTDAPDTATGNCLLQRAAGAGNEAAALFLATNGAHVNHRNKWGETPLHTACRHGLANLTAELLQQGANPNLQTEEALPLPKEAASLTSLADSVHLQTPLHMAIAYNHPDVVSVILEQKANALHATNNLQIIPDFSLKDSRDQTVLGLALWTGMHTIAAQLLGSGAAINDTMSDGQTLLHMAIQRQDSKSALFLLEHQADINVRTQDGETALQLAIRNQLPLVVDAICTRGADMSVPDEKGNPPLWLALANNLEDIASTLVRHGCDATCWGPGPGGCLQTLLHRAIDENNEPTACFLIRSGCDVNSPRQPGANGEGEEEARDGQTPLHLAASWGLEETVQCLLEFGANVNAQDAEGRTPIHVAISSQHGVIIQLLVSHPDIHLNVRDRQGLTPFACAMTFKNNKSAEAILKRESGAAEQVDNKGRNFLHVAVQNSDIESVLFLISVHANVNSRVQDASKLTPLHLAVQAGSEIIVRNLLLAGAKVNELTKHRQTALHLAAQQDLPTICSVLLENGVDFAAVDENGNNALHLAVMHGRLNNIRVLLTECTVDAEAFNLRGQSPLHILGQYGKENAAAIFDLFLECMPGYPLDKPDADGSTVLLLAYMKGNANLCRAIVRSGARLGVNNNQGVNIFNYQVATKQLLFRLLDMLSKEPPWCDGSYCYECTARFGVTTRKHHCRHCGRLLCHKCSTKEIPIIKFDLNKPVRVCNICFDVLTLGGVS
UniProt Q9H6U8: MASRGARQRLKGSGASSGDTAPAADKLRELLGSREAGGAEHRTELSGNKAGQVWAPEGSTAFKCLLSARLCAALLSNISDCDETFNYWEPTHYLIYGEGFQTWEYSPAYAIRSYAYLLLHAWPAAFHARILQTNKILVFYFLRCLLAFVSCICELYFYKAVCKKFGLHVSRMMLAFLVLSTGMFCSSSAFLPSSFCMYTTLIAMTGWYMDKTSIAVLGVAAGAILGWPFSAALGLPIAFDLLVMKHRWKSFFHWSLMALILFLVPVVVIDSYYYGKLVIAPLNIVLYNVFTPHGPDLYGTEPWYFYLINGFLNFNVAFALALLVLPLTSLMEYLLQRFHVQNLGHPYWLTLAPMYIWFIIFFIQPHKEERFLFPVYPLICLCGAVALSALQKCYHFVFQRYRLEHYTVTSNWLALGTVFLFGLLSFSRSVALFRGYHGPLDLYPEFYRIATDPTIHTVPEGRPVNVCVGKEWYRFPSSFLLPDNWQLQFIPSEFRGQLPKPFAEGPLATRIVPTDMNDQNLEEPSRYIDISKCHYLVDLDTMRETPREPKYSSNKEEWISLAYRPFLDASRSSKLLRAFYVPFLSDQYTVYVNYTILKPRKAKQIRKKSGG

Key:
Assay in all cases: log2 fold change, soluble protein after heating vs DMSO (PISA); higher = thermal stabilisation; K562 lysate, 10 uM; active = over 0.2 and 3.5 SD of the protein, either way, in both replicates (recomputed)
lapatinib = compound: CS(=O)(=O)CCNCc1ccc(-c2ccc3ncnc(Nc4ccc(OCc5cccc(F)c5)c(Cl)c4)c3c2)o1 [lapatinib]
Outline: (§1)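 To prepare the extract, K562 pellets were dounce-homogenised in PBS pH 7.4 with 1 mM MgCl2, giving crude material at 1 mg/mL protein. This was treated with 10 μM compound for 30 min, then heated in aliquots for 3 min over 48°C-58°C before pooling and addition of NP-40 to 0.5% at 4°C. Centrifugation at 21,000xg for 90 min left soluble protein in the supernatant, which TMTpro 16plex LC-MS/MS quantified with equalised channel sums. Results are log-two fold changes in thermal stability compared with solvent controls, from duplicates.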

pictilisib = compound: CS(=O)(=O)N1CCN(Cc2cc3nc(-c4cccc5[nH]ncc45)nc(N4CCOCC4)c3s2)CC1 [pictilisib]
Outline: as §1

crizotinib = compound: C[C@@H](Oc1cc(-c2cnn(C3CCNCC3)c2)cnc1N)c1c(Cl)ccc(F)c1Cl [crizotinib]
Outline: as §1

[1] = compound: C[C@H](C1=CC=C(C=C1)C(=O)NC2=C3C=CNC3=NC=C2)N
Outline: as §1

duvelisib = compound: C[C@H](Nc1ncnc2nc[nH]c12)c1cc2cccc(Cl)c2c(=O)n1-c1ccccc1 [duvelisib]
Outline: as §1

gandotinib = compound: Cc1cc(Nc2cc(CN3CCOCC3)c3nc(C)c(Cc4ccc(Cl)cc4F)n3n2)n[nH]1 [gandotinib]
Outline: as §1

tozasertib = compound: Cc1cc(Nc2cc(N3CCN(C)CC3)nc(Sc3ccc(NC(=O)C4CC4)cc3)n2)n[nH]1 [tozasertib]
Outline: as §1

doramapimod = compound: Cc1ccc(-n2nc(C(C)(C)C)cc2NC(=O)Nc2ccc(OCCN3CCOCC3)c3ccccc23)cc1 [doramapimod]
Outline: as §1

bafetinib = compound: Cc1ccc(NC(=O)c2ccc(CN3CC[C@H](N(C)C)C3)c(C(F)(F)F)c2)cc1Nc1nccc(-c2cncnc2)n1 [bafetinib]
Outline: as §1

[2] = compound: Cc1cccc(CC(=O)N2CCc3c2ccc(-c2cn(C)c4ncnc(N)c24)c3F)n1
Outline: as §1

nilotinib = compound: Cc1cn(-c2cc(NC(=O)c3ccc(C)c(Nc4nccc(-c5cccnc5)n4)c3)cc(C(F)(F)F)c2)cn1 [nilotinib]
Outline: as §1

[3] = compound: Cc1nc(Nc2n[nH]c3c2CN(C(=O)N[C@H](CN(C)C)c2ccccc2)C3(C)C)c2sccc2n1
Outline: as §1

dasatinib = compound: Cc1nc(Nc2ncc(C(=O)Nc3c(C)cccc3Cl)s2)cc(N2CCN(CCO)CC2)n1 [dasatinib]
Outline: as §1

[4] = compound: Cc1ncc(-c2ccnc(Nc3ccc(S(C)(=O)=O)cc3)n2)n1C(C)C
Outline: as §1

[5] = compound: Cn1cc(-c2ccc3c(c2)CCN3C(=O)Cc2cccc(C(F)(F)F)c2)c2c(N)ncnc21
Outline: as §1

quisinostat = compound: Cn1cc(CNCC2CCN(c3ncc(C(=O)NO)cn3)CC2)c2ccccc21 [quisinostat]
Outline: as §1

tipifarnib = compound: Cn1cncc1[C@@](N)(c1ccc(Cl)cc1)c1ccc2c(c1)c(-c1cccc(Cl)c1)cc(=O)n2C [tipifarnib]
Outline: as §1

[6] = compound: NC(=O)Nc1cc(-c2cccc(F)c2)sc1C(=O)N[C@H]1CCCNC1
Outline: as §1

[7] = compound: NC(=O)c1cnc(N[C@@H]2CCCC[C@@H]2N)nc1Nc1cccc(-n2nccn2)c1
Outline: as §1

[8] = compound: NC1(c2ccc(-c3nc4ccn5c(=O)[nH]nc5c4cc3-c3ccccc3)cc2)CCC1
Outline: as §1

Measured: log2 fold change

ALG8 (UniProt Q9BVK2)
inactive: lapatinib -0.043 | pictilisib -0.043 | crizotinib 0.017 | [1] -0.211 | duvelisib -0.013 | gandotinib 0 | tozasertib 0.116 | doramapimod -0.06 | bafetinib -0.08 | [2] 0.087 | nilotinib -0.007 | [3] -0.008 | dasatinib -0.051 | [4] -0.077 | [5] 0.02 | quisinostat 0.019 | tipifarnib -0.165 | [6] 0.043 | [7] -0.025 | [8] -0.006

ALDOC (UniProt P09972)
inactive: lapatinib 0.069 | pictilisib 0.035 | crizotinib 0.061 | [1] -0.037 | duvelisib 0.005 | gandotinib -0.009 | tozasertib -0.009 | doramapimod -0.008 | bafetinib 0.271 | [2] -0.04 | nilotinib 0 | [3] 0.059 | dasatinib 0.04 | [4] 0.004 | [5] -0.004 | quisinostat 0.042 | tipifarnib 0.013 | [6] -0.022 | [7] -0.009 | [8] 0

ALG2 (UniProt Q9H553)
inactive: lapatinib 0.003 | pictilisib -0.229 | crizotinib 0.015 | [1] -0.053 | duvelisib 0.014 | gandotinib -0.131 | tozasertib 0.127 | doramapimod -0.034 | bafetinib 0.024 | [2] 0.015 | nilotinib -0.017 | [3] 0.031 | dasatinib -0.01 | [4] -0.041 | [5] -0.023 | quisinostat -0.052 | tipifarnib -0.06 | [6] -0.012 | [7] 0.003 | [8] -0.049

ANKRD10 (UniProt Q9NXR5)
inactive: lapatinib -0.074 | pictilisib 0.184 | crizotinib 0.017 | [1] -0.032 | duvelisib -0.052 | gandotinib -0.088 | doramapimod -0.079 | bafetinib -0.112 | [2] 0.007 | nilotinib -0.042 | [3] -0.021 | dasatinib -0.05 | [4] 0.021 | [5] 0.012 | quisinostat 0.001 | tipifarnib -0.028 | [6] 0.036 | [7] 0.168 | [8] -0.029

ANAPC2 (UniProt Q9UJX6)
inactive: lapatinib -0.031 | pictilisib -0.005 | crizotinib -0.047 | [1] -0.041 | duvelisib 0.013 | gandotinib -0.058 | tozasertib -0.019 | doramapimod 0.003 | bafetinib -0.044 | [2] 0.041 | nilotinib -0.047 | [3] 0.012 | dasatinib -0.017 | [4] -0.021 | [5] 0.024 | quisinostat -0.032 | tipifarnib 0.005 | [6] 0.007 | [7] 0.003 | [8] 0.006

ANKRD52 (UniProt Q8NB46)
inactive: lapatinib -0.133 | pictilisib -0.036 | crizotinib -0.11 | [1] -0.004 | duvelisib 0.01 | gandotinib 0.012 | tozasertib 0 | doramapimod 0.001 | bafetinib -0.071 | [2] 0.034 | nilotinib 0.041 | [3] 0.003 | dasatinib -0.048 | [4] -0.026 | [5] -0.045 | quisinostat -0.037 | tipifarnib -0.017 | [6] 0.005 | [7] -0.056 | [8] -0.028

3 successive records out of the list so far:
ALG2 (UniProt Q9H553)
inactive: lapatinib 0.003 | pictilisib -0.229 | crizotinib 0.015 | [1] -0.053 | duvelisib 0.014 | gandotinib -0.131 | tozasertib 0.127 | doramapimod -0.034 | bafetinib 0.024 | [2] 0.015 | nilotinib -0.017 | [3] 0.031 | dasatinib -0.01 | [4] -0.041 | [5] -0.023 | quisinostat -0.052 | tipifarnib -0.06 | [6] -0.012 | [7] 0.003 | [8] -0.049

ANKRD10 (UniProt Q9NXR5)
inactive: lapatinib -0.074 | pictilisib 0.184 | crizotinib 0.017 | [1] -0.032 | duvelisib -0.052 | gandotinib -0.088 | doramapimod -0.079 | bafetinib -0.112 | [2] 0.007 | nilotinib -0.042 | [3] -0.021 | dasatinib -0.05 | [4] 0.021 | [5] 0.012 | quisinostat 0.001 | tipifarnib -0.028 | [6] 0.036 | [7] 0.168 | [8] -0.029

ANAPC2 (UniProt Q9UJX6)
inactive: lapatinib -0.031 | pictilisib -0.005 | crizotinib -0.047 | [1] -0.041 | duvelisib 0.013 | gandotinib -0.058 | tozasertib -0.019 | doramapimod 0.003 | bafetinib -0.044 | [2] 0.041 | nilotinib -0.047 | [3] 0.012 | dasatinib -0.017 | [4] -0.021 | [5] 0.024 | quisinostat -0.032 | tipifarnib 0.005 | [6] 0.007 | [7] 0.003 | [8] 0.006

Later entries

ANXA2 (UniProt H0YL33)
inactive: lapatinib 0.026 | pictilisib -0.028 | crizotinib -0.048 | [1] 0.284 | duvelisib 0.044 | gandotinib -0.163 | doramapimod 0.017 | bafetinib 0.031 | [2] -0.054 | nilotinib -0.153 | [3] 0.008 | dasatinib -0.069 | [4] 0.074 | [5] 0.022 | quisinostat 0.134 | tipifarnib 0.199 | [6] -0.196 | [7] -0.078 | [8] 0.089

ANXA13 isoform 2 (UniProt P27216)
inactive: lapatinib -0.111 | pictilisib -0.03 | crizotinib 0.011 | [1] 0.057 | duvelisib -0.116 | doramapimod 0.038 | bafetinib -0.195 | [2] 0.284 | nilotinib -0.001 | [3] 0.005 | dasatinib 0.007 | [4] -0.079 | [5] 0.104 | quisinostat -0.022 | tipifarnib 0.123 | [6] 0.023 | [7] 0.032 | [8] 0.078
active: gandotinib 0.545

AKT2 (UniProt P31751)
active: [8] 0.559
inactive: lapatinib -0.022 | pictilisib 0.005 | crizotinib 0.015 | [1] -0.007 | duvelisib -0.005 | gandotinib -0.022 | tozasertib 0.033 | doramapimod -0.015 | bafetinib 0.051 | [2] -0.036 | nilotinib -0.013 | [3] -0.004 | dasatinib 0.003 | [4] -0.008 | [5] 0.005 | quisinostat 0.001 | tipifarnib 0.017 | [6] 0.019 | [7] -0.015

ANTXR2 isoform 4 (UniProt P58335)
inactive: lapatinib -0.015 | pictilisib -0.002 | crizotinib -0.037 | [1] -0.084 | duvelisib 0.017 | gandotinib 0.085 | tozasertib -0.036 | doramapimod -0.021 | bafetinib -0.031 | [2] 0.084 | nilotinib 0.017 | [3] 0.031 | dasatinib 0.034 | [4] -0.048 | [5] -0.009 | quisinostat -0.089 | tipifarnib -0.052 | [6] -0.016 | [7] 0.021 | [8] -0.043

ALDH16A1 (UniProt Q8IZ83)
inactive: lapatinib 0.019 | pictilisib -0.028 | crizotinib -0.008 | [1] -0.037 | duvelisib 0.015 | gandotinib 0.025 | tozasertib 0.019 | doramapimod 0.005 | bafetinib 0.04 | [2] 0.018 | nilotinib 0.028 | [3] 0.019 | dasatinib -0.035 | [4] -0.023 | [5] -0.005 | quisinostat -0.008 | tipifarnib -0.023 | [6] 0 | [7] -0.026 | [8] 0.006

ALDH1A2 (UniProt O94788)
inactive: lapatinib 0.012 | pictilisib 0.001 | crizotinib 0.002 | [1] -0.01 | duvelisib 0.046 | gandotinib -0.001 | tozasertib -0.001 | doramapimod 0.006 | bafetinib 0.079 | [2] 0.013 | nilotinib 0.014 | [3] -0.02 | dasatinib -0.008 | [4] -0.009 | [5] 0.002 | quisinostat 0.036 | tipifarnib 0.011 | [6] -0.012 | [7] -0.008 | [8] 0.024

ANKRD13D isoform 3 (UniProt Q6ZTN6)
inactive: lapatinib 0.027 | pictilisib -0.063 | crizotinib -0.093 | [1] 0.021 | duvelisib -0.024 | gandotinib 0 | tozasertib 0.169 | doramapimod 0.061 | bafetinib -0.078 | [2] -0.028 | nilotinib 0.086 | [3] -0.035 | dasatinib -0.006 | [4] -0.027 | [5] -0.071 | quisinostat 0.024 | tipifarnib -0.078 | [6] 0.012 | [7] -0.019 | [8] -0.019

ANXA11 (UniProt P50995)
inactive: lapatinib -0.005 | pictilisib -0.008 | crizotinib 0.001 | [1] -0.044 | duvelisib -0.022 | gandotinib 0.008 | tozasertib 0.026 | doramapimod 0.012 | bafetinib -0.03 | [2] 0.039 | nilotinib 0.014 | [3] -0.017 | dasatinib -0.033 | [4] -0.029 | [5] 0.016 | quisinostat 0.005 | tipifarnib -0.011 | [6] -0.002 | [7] 0.009 | [8] 0.028

ANKFY1 isoform 4 (UniProt Q9P2R3)
inactive: lapatinib -0.005 | pictilisib -0.05 | crizotinib -0.081 | [1] -0.005 | duvelisib 0.006 | gandotinib -0.105 | tozasertib -0.005 | doramapimod 0.028 | bafetinib -0.055 | [2] 0.018 | nilotinib 0.019 | [3] -0.023 | dasatinib -0.038 | [4] 0 | [5] 0.016 | quisinostat -0.066 | tipifarnib -0.006 | [6] -0.002 | [7] -0.013 | [8] -0.02

ALG9 isoform 3 (UniProt Q9H6U8)
inactive: lapatinib -0.036 | pictilisib -0.075 | crizotinib 0.031 | [1] -0.008 | duvelisib 0.004 | gandotinib -0.001 | tozasertib 0.032 | doramapimod -0.1 | bafetinib -0.047 | [2] 0.027 | nilotinib 0.05 | [3] 0.068 | dasatinib -0.078 | [4] 0.027 | [5] 0.046 | quisinostat 0.076 | tipifarnib 0.003 | [6] 0.078 | [7] -0.015 | [8] 0.023
